PubChem BioAssay AID540276 (National Center for Advancing Translational Sciences (NCATS), 2011)
The whole screen tested about 300,000 compounds, of which about 5,400 (1.8%) were called active. Inconclusive means that the source gave no clear call. Such entries were picked first, then a sample of the others. The call rests on the fitted dose curve; tested in HEK293 cells. Potencies of inconclusive entries are doubtful fits and often do not repeat.

experiment: qHTS for inhibitors of binding or entry into cells for Marburg Virus; conditions: Marburg virus pseudotyped entry inhibition, cell reporter; series mostly up to 37.8 µM
Potency means the concentration at half of the fitted maximal effect.

SMILES	Potency
CCCOCC(O)CCc1n[nH]c(=S)n1-c1ccccc1 (stereo unspecified)	inconclusive: 7.08 µM [activator, single point]
Fc1ccccc1-c1nc(N2CCCCC2)c2ccccc2n1	inconclusive: 6.31 µM [inhibitor, single point]
Cc1ccc(Cl)cc1NC(=O)Nc1cccs1	active: 10 µM
Cc1ccc2cc(CCNC(=O)c3cccc([N+](=O)[O-])c3)c(=O)[nH]c2c1C	inactive
Cn1ncc2c(N3CCN(c4ccc(Cl)c(Cl)c4)CC3)ncnc21	inactive
COCCCNC(=O)C1CCCN(S(=O)(=O)c2ccc(C)cc2)C1 (stereo unspecified)	inconclusive: 0.058 µM [inhibitor, full curve]
Cc1ccc(CNS(=O)(=O)c2ccc3c(c2)n(C)c(=O)n3C)cc1	inconclusive: 10 µM [inhibitor, partial curve]
CN(C(=O)COC(=O)/C=C/c1cn(-c2ccccc2)nc1-c1ccc2c(c1)OCCO2)C1CCS(=O)(=O)C1 (stereo unspecified)	inactive
COc1cc(C=O)ccc1OCc1cccc(Br)c1	inconclusive: 15.8 µM [activator, partial curve, poor fit]
COc1ccc(-c2[nH]ncc2CN2CCN(Cc3cccs3)CC2)c(F)c1	inconclusive: 3.16 µM [inhibitor, partial curve, poor fit]
CC(=O)OC1N=C(c2ccccc2)c2ccccc2NC1=O (stereo unspecified)	inactive
Cc1sc2ncnc(N3CCOCC3)c2c1C	inactive
C/C(=N\NC(=O)CCn1nnc2ccccc21)c1cccs1	inactive
COc1cc(NC(=O)Cn2nc(C(F)(F)F)c3c2CCCC3)c(OC)cc1Cl	inconclusive: 17.8 µM [inhibitor, single point]
CC1CN(CC(=O)Nc2nc(-c3ccc(Cl)cc3)cs2)CC(C)O1 (stereo unspecified)	inconclusive: 14.1 µM [inhibitor, single point]
CCOC(=O)CSc1nc(C)nc2c1sc1nc(C)c(C(C)=O)c(-c3ccc(OC)cc3)c12	inactive
COc1ccc(NC(=O)CC2(Cc3ccccc3)CCOC(C)(C)C2)cc1 (stereo unspecified)	inconclusive: 1 µM [activator, partial curve, poor fit]
O=C(NCCNC(=O)Nc1ccc(Cl)cc1)Nc1ccc(Cl)cc1	inactive
Cc1ccn2c(C(=O)CSc3ccccc3Cl)c(C)nc2c1	inconclusive: 22.4 µM [inhibitor, partial curve, poor fit]
CC(C)(C)c1ccc2c(c1)OC(C(=O)N/N=C/c1ccc([N+](=O)[O-])o1)CO2 (stereo unspecified)	inconclusive: 22.4 µM [inhibitor, single point]
Cc1ccc(-n2c(N)c(C(=O)Nc3ccccc3F)sc2=S)cc1C	inconclusive: 1.41 µM [activator, partial curve, poor fit]
COC(=O)c1sc(NC(=O)CSc2nnc(Cn3nnc4ccccc43)n2C)nc1C	inactive
COc1ccc(N2CCN(c3nc4ccccn4c(=O)c3C=O)CC2)cc1	inactive

SMILES	Potency
Cc1cc([N+](=O)[O-])ccc1NC1CCCC1	inconclusive: 28.2 µM [inhibitor, single point]
COc1cccc(C(=O)OCC(=O)c2ccc(S(=O)(=O)N3CCCCC3)cc2)c1OC	inconclusive: 3.55 µM [inhibitor, single point]
Cc1cc2cc(CN(CCN(C)C)C(=S)NCc3ccco3)c(=O)[nH]c2cc1C	inconclusive: 10 µM [inhibitor, partial curve, poor fit]
O=C(NC1CCCCCC1)C1CCN(C(=O)Cc2ccccc2)CC1	inactive
CCN(CC)CCN1C(=O)C(=O)/C(=C(/O)c2ccc(OC(C)C)cc2)C1c1cccs1 (stereo unspecified)	inactive
COc1ccc(C(CNC(=O)Cc2cc(OC)c(OC)c(OC)c2)N2CCCC2)cc1 (stereo unspecified)	inactive
CCN(CC)C(=O)CSc1nc(-c2cccs2)cc(-c2cccs2)c1C#N	inconclusive: 18.3 µM [inhibitor, partial curve, poor fit]
O=C(Nc1cccc(C(F)(F)F)c1)C1CCCN1S(=O)(=O)c1cccc2cccnc12 (stereo unspecified)	inconclusive: 20.6 µM [inhibitor, partial curve, poor fit]
CCC(Cc1ccccc1)NS(=O)(=O)c1ccc2c(c1)NC(=O)CO2 (stereo unspecified)	inconclusive: 3.55 µM [inhibitor, partial curve, poor fit]
COc1ccc(Br)cc1S(=O)(=O)NNC(=O)c1c(C)nc2ccccn12	inactive
O=C(NC1CCCCCCC1)C1c2ccccc2C(=O)N1Cc1cccs1 (stereo unspecified)	inactive
COc1ccc2nc(C)cc(Nc3ccc(C)cc3)c2c1	inconclusive: 4.47 µM [inhibitor, partial curve]
Cc1cc(N2CCC(C(=O)NC3CC3)CC2)nc(-c2ccccc2)n1	inactive
O=C(N/N=C/c1ccncc1)c1ccc(NS(=O)(=O)c2cccs2)cc1	inconclusive: 15.8 µM [activator, single point]
COc1ccc(Cl)cc1NC(=O)CN1CCCC1	inconclusive: 31.6 µM [activator, single point]
COc1ccc(Cl)cc1C(=O)NNC(=S)NC(=O)c1cc(-c2ccc(Cl)cc2)nc2ccccc12	inconclusive: 6.31 µM [inhibitor, single point]
Cc1nn(-c2ccccc2)c(C)c1/C=N/n1c(-c2ccc(Cl)cc2)n[nH]c1=S	inactive
COc1ccc2[nH]c(CN3CCC(CO)(CCOc4ccccc4)CC3)c(C)c2c1	inconclusive: 2.82 µM [inhibitor, full curve, poor fit]
COCCn1c(=O)[nH]c2cc(C(=O)NCCN3CCN(c4cccc(Cl)c4)CC3)ccc2c1=O	inconclusive: 23.1 µM [inhibitor, partial curve, poor fit]
Cc1cc(C(=O)COC(=O)c2ccc[nH]c2=O)c(C)n1-c1ccc(F)cc1	inconclusive: 0.631 µM [activator, partial curve, poor fit]
Cc1cc([N+](=O)[O-])ccc1NC(=O)c1cc2ccccc2o1	inactive
Cc1ccc2nc3c(nc2c1)-c1ccccc1C3=O	inactive
CCCCNC(C(=O)Nc1ccc([N+](=O)[O-])cc1Br)c1ccccc1 (stereo unspecified)	inconclusive: 1.12 µM [inhibitor, full curve]

Ordered by length of the SMILES (high to low): 3 of the compounds above
SMILES	Potency
COc1ccc(Br)cc1S(=O)(=O)NNC(=O)c1c(C)nc2ccccn12	inactive
Cc1cc([N+](=O)[O-])ccc1NC1CCCC1	inconclusive: 28.2 µM [inhibitor, single point]
COc1ccc(Cl)cc1NC(=O)CN1CCCC1	inconclusive: 31.6 µM [activator, single point]
